Experiment [1] has as its target Flag-βTRCP1, expressed in 293T cells (UniProt Q9Y297). As to the kind of experiment: co-IP; 293T cells transfected for 30 h, MG132 10 µM for 5 h; lysates in EBC buffer (50 mM Tris pH 8.0, 120 mM NaCl, 0.5% NP40, 1 mM DTT); antibodies on protein G beads or anti-HA beads, 4 h to overnight at 4 °C; in some panels Myc-Chk1 or Myc-Chk1^L449R co-expressed, HU, CHIR-124 or AZD7762 added.

Chains of the proteins cited; added tags and fusions are not shown. Lines headed by an entry give the natural chain unless they say otherwise; changes in a name come on top. A line that says so, or that is headed by a name, gives the form on record, which may keep a tag or linker.
UniProt Q9Y297: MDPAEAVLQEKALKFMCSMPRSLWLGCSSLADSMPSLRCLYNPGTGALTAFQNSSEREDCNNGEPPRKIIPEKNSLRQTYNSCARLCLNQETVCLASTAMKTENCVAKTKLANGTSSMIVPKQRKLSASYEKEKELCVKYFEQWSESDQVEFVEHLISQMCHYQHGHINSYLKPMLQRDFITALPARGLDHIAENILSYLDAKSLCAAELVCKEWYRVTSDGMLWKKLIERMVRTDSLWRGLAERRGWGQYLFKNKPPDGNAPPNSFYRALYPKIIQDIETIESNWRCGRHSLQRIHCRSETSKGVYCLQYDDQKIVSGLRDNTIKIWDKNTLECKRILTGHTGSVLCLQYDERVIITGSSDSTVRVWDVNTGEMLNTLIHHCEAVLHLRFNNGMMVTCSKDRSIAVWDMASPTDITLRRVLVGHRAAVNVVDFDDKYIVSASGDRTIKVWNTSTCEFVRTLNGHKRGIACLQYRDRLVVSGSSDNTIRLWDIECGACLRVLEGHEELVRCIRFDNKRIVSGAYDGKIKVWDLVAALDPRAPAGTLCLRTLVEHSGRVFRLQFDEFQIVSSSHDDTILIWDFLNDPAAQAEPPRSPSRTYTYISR
UniProt Q9UM11: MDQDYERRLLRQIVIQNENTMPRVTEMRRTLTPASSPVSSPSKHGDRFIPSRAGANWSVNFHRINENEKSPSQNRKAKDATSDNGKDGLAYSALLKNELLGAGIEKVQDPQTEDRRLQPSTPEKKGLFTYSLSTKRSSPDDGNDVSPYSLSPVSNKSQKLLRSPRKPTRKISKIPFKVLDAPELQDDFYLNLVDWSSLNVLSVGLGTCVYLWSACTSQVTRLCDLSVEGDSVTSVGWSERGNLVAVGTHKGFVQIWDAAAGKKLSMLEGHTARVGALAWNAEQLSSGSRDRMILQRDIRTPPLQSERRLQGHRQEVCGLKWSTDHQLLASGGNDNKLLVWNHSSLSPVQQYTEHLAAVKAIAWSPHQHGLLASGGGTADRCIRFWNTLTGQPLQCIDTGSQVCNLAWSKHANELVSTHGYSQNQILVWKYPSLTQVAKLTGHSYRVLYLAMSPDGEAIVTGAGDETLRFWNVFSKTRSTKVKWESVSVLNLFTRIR
HA-Cdh1 SS137/138AA, expressed in 293T cells (Q9UM11, form named): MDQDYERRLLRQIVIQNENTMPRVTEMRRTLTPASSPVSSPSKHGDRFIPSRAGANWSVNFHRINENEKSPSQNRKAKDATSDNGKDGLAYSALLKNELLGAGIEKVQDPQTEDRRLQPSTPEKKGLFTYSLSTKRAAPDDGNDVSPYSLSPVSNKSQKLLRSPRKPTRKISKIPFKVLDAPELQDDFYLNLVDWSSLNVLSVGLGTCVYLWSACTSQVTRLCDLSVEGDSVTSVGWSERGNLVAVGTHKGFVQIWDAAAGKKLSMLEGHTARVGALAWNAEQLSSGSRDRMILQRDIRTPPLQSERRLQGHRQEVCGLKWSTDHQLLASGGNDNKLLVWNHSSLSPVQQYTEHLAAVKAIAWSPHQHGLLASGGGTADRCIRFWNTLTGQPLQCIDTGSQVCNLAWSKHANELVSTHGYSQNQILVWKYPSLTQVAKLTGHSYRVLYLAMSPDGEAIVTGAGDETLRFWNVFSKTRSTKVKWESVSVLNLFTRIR

The target in experiment [2] is endogenous βTRCP1 of 293T cells (human (endogenous in 293T)) (UniProt Q9Y297). Described as above.

These are yes or no findings as the source states them, for the method shown. Binding seen in cells or lysates may run through a third protein. Some results given as binding are weak or reduced against the parent protein; the word gives no strength.

For “HA-Cdh1 (wild type), expressed in 293T cells (from UniProt Q9UM11 1-496)”, the binding entry in experiment [1] and in experiment [2] was “binds” in each case. With “HA-Cdh1 SS137/138AA, expressed in 293T cells (from UniProt Q9UM11 1-496)”, the binding result in experiment [2] is reported as “binds”.

These data come from PMC7188793.
